Measurements as given in patent US8822541B2, “Use of targeted nitroxide agents in mitigating or treating radiation injury” (University of Pittsburgh—Of the Commonwealth System of …, priority 2008, dated 2014).

Test system: Sprague Dawley rats
Assay: Survival of rats subjected to volume-controlled hemorrhagic shock
Assay type: in vivo, rat
Experimental: Survival of rats subjected to volume-controlled hemorrhagic shock. Following surgical preparation and a 5-min stabilization period to obtain baseline readings, rats were subjected to hemorrhagic shock. Bleeding was carried out in 2 phases.
Initially, 21 ml/kg of blood was withdrawn over 20 min. Immediately thereafter, an additional 12.5 ml/kg of blood was withdrawn over 40 min. Thus, hemorrhage occurred over a total period of 60 min and the total blood loss was 33.5 ml/kg or approximately 55% of the total blood volume. Rats were randomly assigned to receive XJB-5-131 (2 μmol/kg) or its vehicle, a 33:67 (v/v) mixture of DMSO and normal saline. XJB-5-131 solution or vehicle alone was administered as a continuous infusion during the last 20 min of the hemorrhage period. The total volume of fluid infused was 2.8 ml/kg and it was administered intravenously using a syringe pump (KD100, KD Scientific, New Hope, Pa.). […] At the end of the 6 hour observation period, animals that were still alive were euthanized with an overdose of KCl.
Blood pressure was recorded continuously using a commercial strain-gauge transducer, amplifier, and monitor (S90603a, SpaceLabs, Redmond, Wash.). Blood samples (0.5 ml) were collected from the jugular vein at the beginning of hemorrhage (baseline), at the end of hemorrhage (shock) and at the end of resuscitation (resuscitation). Hemoglobin concentration [Hb], lactate and glucose concentration were determined using an auto-analyzer (Model ABL 725, Radiometer Copenhagen, Westlake, Ohio).
A total of sixteen rats were tested in this study. Rats were treated with 2.8 ml/kg of vehicle or the same volume of XJB-5-131 solution during the final 20 min of the bleeding protocol. The total dose of XJB-5-131 infused was 2 μmol/kg. Following profound hemorrhagic shock consistent with the protocol described above for the prior studies, thirteen survived for at least 60 min and received the full dose of either XJB-5-131 solution or the vehicle, a 33:67 (v/v) mixture of DMSO and normal saline. […] None of the between-group differences were statistically significant.

[1] = End of first phase of hemorrhage (before treatment)
[2] = End of second phase of hemorrhage, 2 μmol/kg iv

Q: `CC(C)C[C@@H](/C=C/[C@H](Cc1ccccc1)C(=O)N1CCC[C@H]1C(=O)N[C@H](C(=O)N[C@@H](CCCNC(=O)OCc1ccccc1)C(=O)NC1CC(C)(C)N([O])C(C)(C)C1)C(C)C)NC(=O)OC(C)(C)C` [XJB-5-131] was tested. Which “Blood Hb concentration” value (Baseline (before treatment)) did it give?
A: Its value is 12.7 ± 0.3 g/dL.

Q: And the Blood glucose concentration (Baseline (before treatment))?
A: The Blood glucose concentration was 134 ± 4 mg/dL.

Q: And the “Blood Hb concentration” value [1]?
A: Its value is 10.7 ± 0.3 g/dL.

Q: What about the Blood glucose concentration [1] of the same compound?
A: The Blood glucose concentration was 228 ± 24 mg/dL.

Q: And the “Blood Hb concentration” value [2]?
A: The value was 9.4 ± 0.3 g/dL.

Q: What about the Blood glucose concentration [2] of the same compound?
A: Its Blood glucose concentration is 201 ± 38 mg/dL.
